This note sets out measurements from article PMC7378894.

Protein sequences, listed by entry. Tags and fused reporters are not part of them.
UniProt O75626: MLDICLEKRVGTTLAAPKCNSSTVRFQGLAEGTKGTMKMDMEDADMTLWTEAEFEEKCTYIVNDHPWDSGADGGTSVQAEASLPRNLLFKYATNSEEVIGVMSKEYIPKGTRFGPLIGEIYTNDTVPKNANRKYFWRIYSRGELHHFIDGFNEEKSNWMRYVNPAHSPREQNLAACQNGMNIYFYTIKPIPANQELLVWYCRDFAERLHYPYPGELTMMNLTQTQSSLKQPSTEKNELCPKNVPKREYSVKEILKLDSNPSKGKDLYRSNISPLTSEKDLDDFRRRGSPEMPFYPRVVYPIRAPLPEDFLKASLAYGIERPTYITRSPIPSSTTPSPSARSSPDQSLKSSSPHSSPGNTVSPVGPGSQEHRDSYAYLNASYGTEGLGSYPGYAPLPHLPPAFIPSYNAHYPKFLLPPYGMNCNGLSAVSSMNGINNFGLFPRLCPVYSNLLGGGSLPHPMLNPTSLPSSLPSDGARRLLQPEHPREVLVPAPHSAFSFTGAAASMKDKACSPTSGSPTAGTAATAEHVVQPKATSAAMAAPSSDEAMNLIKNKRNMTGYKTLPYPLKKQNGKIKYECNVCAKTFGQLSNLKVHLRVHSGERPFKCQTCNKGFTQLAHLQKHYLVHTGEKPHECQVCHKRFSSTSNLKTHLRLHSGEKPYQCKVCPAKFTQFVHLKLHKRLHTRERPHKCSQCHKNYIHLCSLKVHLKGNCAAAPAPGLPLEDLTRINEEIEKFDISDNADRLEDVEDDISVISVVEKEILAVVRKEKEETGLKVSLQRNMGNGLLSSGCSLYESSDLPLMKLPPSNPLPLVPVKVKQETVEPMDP

These are yes or no findings as the source states them, for the method shown. Binding seen in cells or lysates may run through a third protein. A yes stands for co-enrichment or nearness to the bait. Other partners may have been found.

The assay addresses Positive regulatory domain 1 (PRDM1) in monocyte derived-dendritic cells (human (endogenous in MO-DCs)) (UniProt O75626). The assay can be described thus: affinity purification with mass spectrometry; iTRAQ MS of the nuclear fraction of MO-DCs immunoprecipitated by PRDM1 antibody, compared with control IgG, cutoff >1.5-fold.

B1: non-POU domain-containing octamer-binding protein (NonO) in monocyte derived-dendritic cells (protein, UniProt Q15233 1-471)
chain: MQSNKTFNLEKQNHTPRKHHQHHHQQQHHQQQQQQPPPPPIPANGQQASSQNEGLTIDLKNFRKPGEKTFTQRSRLFVGNLPPDITEEEMRKLFEKYGKAGEVFIHKDKGFGFIRLETRTLAEIAKVELDNMPLRGKQLRVRFACHSASLTVRNLPQYVSNELLEEAFSVFGQVERAVVIVDDRGRPSGKGIVEFSGKPAARKALDRCSEGSFLLTTFPRPVTVEPMDQLDDEEGLPEKLVIKNQQFHKEREQPPRFAQPGSFEYEYAMRWKALIEMEKQQQDQVDRNIKEAREKLEMEMEAARHEHQVMLMRQDLMRRQEELRRMEELHNQEVQKRKQLELRQEEERRRREEEMRRQQEEMMRRQQEGFKGTFPDAREQEIRMGQMAMGGAMGINNRGAMPPAPVPAGTPAPPGPATMMPDGTLGLTPPTTERFGQAATMEGIGAIGGTPPAFNRAAPGAEFAPNKRRRY
Take B1: the binding entry is listed as “binds”.
